Some of the results follow.

Protein sequences, listed by entry. Tags and fused reporters are not part of them.
UniProt Q0JBA9, entry or part of it: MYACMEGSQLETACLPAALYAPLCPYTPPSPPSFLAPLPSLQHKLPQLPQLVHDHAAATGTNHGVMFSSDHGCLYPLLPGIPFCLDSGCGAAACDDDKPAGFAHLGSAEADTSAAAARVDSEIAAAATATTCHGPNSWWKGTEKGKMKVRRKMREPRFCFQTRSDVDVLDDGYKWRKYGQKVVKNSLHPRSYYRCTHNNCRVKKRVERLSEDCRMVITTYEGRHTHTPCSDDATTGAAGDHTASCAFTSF

In this assay the target is OsWRKY34 (Oryza sativa, UniProt Q0JBA9 1-250). Description: protein-binding microarray (RPBM); PBS, 2% BSA, 51.3 ng/ul salmon testes DNA, 50 uM zinc acetate, 200 nM TF, 25 C, 1 h; high values mean tight binding. Particulars: protein: recombinant; tags: N-terminal polyhistidine and DsRed monomer fusion (pET32a); label: CyDye5-dUTP incorporated in the synthesized complementary strand; 3' TTTTT single-stranded linker to array surface; dsDNA, one strand shown. Put shortly:
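Transcription factors, each fused N-terminally to a polyhistidine tag and DsRed, were expressed in E. coli BL21-CodonPlus and purified on Ni–NTA. A custom Agilent array was made double-stranded by primer extension with Cy5-dUTP and blocked with 2% BSA. It was incubated with 200 nM protein in PBS, 2% BSA, salmon testes DNA and 50 µM zinc acetate at 25 °C for 1 h, then washed. The binding signal is per-feature fluorescence intensity (arbitrary units) read on an Axon 4000B scanner.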
Consider “CTTCGTGTTCGTCGTGGTCTCTTGTTTCTTCTTCTTCTTCCGGAGTCACCTAGTGCAG”, for which the binding signal is 22000 fluorescence intensity (a.u.).

Regarding “AGCACCACACTTGTACCTTACATGGCTCATGTGTAATTGACGGAGTCACCTAGTGCAG”, the binding signal is 10300 fluorescence intensity (a.u.).

Turning to “GAAACGTGTCACGCCTCTCCATCCACCTGTCGCATCTACCCGGAGTCACCTAGTGCAG”, the binding signal is 8150 fluorescence intensity (a.u.).

With “CCATTTGGTCTTTCTAACTCTCTCTATATATATAGTCATACGGAGTCACCTAGTGCAG”, the binding signal was 9880 fluorescence intensity (a.u.).

Take “TCCTACCCGGGCCCACATGTCGGAGCTGTCAAACGGCTCACGGAGTCACCTAGTGCAG”: the binding signal was 9670 fluorescence intensity (a.u.).

On to “TCTAAATGGACGTGATGCCGTTTTTATGAACAGATTAAGCCGGAGTCACCTAGTGCAG”, for which the binding signal is 14600 fluorescence intensity (a.u.).

On to “TACATTTTACGTACAGTTTGTATTAGGTCTGACATATTCTCGGAGTCACCTAGTGCAG”, for which the binding signal was 8730 fluorescence intensity (a.u.).

Take “GGCATCCCACCACCAGCTGCTACAGGCTGCATCACTCGATCGGAGTCACCTAGTGCAG”: the binding signal was 8750 fluorescence intensity (a.u.).

For the sequence “TCGTGGTTTTAGTCTTGGTCCATGCCAGATTGCGATTGAACGGAGTCACCTAGTGCAG”, the binding signal was 8050 fluorescence intensity (a.u.).

Turning to “TATTTTTCAGATTGTATTTCTGTTTGGACTCTTTTTTTTCCGGAGTCACCTAGTGCAG”, the binding signal is 11900 fluorescence intensity (a.u.).

As for “GGTTGGTTTCTTTCGTTGGATTGTTTCGAGCCAGGGTTTCCGGAGTCACCTAGTGCAG”, the binding signal is 16900 fluorescence intensity (a.u.).

As to “TCCGTTTGTCTTCTACCTCCCGACGAAGCCATTGTCAATCCGGAGTCACCTAGTGCAG”, the binding signal was 9920 fluorescence intensity (a.u.).

For the sequence “TTTGATTTCATTGCATCTAGGTGTTGAAAAACCTTGTCCGCGGAGTCACCTAGTGCAG”, the binding signal is 8460 fluorescence intensity (a.u.).

For the sequence “TCCTTTCGTTTTTCCTCCTGCAGTGGCAGATACTGTAATTCGGAGTCACCTAGTGCAG”, the binding signal was 8120 fluorescence intensity (a.u.).

On to “ACTGGGGAGAGGCTAGCTAGGGGAATCCATGCACCAACTTCGGAGTCACCTAGTGCAG”, for which the binding signal was 8090 fluorescence intensity (a.u.).

With “GCGACGACGCCACGTCATCTCACGCTCAAGCAAATCGCGCCGGAGTCACCTAGTGCAG”, the binding signal was 8250 fluorescence intensity (a.u.).

Consider “AATCACTCCGCGTCATCTTGTTGTCTACTCCATCATATGCCGGAGTCACCTAGTGCAG”, for which the binding signal was 9900 fluorescence intensity (a.u.).

In the case of “ACTTCTCTTTCCTGTAGACAGTCTGTGATAATTTTGTTCTCGGAGTCACCTAGTGCAG”, the binding signal was 14300 fluorescence intensity (a.u.).

Take “TCGCCACCAACTCCGAGCGACAACCGGTACTTTCTCCTTCCGGAGTCACCTAGTGCAG”: the binding signal is 8330 fluorescence intensity (a.u.).

“CCTCTCTGCCGCCCTATTCCATGCATCGAGCGTTAAACCGCGGAGTCACCTAGTGCAG”: the binding signal is 12400 fluorescence intensity (a.u.).

Regarding “GGAATTCACAACCACACCCTTCACACATTTCTCCTCCGCCCGGAGTCACCTAGTGCAG”, the binding signal was 8030 fluorescence intensity (a.u.).

In the case of “TGCGTCTTGTATGAACCCTAACTCTTTTTCTCTTCTTTTTCGGAGTCACCTAGTGCAG”, the binding signal was 9760 fluorescence intensity (a.u.).

“CTTACTGTTACTACGGTATCTCTAATTTCTTCCCTTGCAGCGGAGTCACCTAGTGCAG”: the binding signal is 8420 fluorescence intensity (a.u.).

Regarding “TCTCCAACAGCTCCTACATCGTCACCCGCCTAATAACTGACGGAGTCACCTAGTGCAG”, the binding signal is 10200 fluorescence intensity (a.u.).

Take “TTGCACTATATCGCACCCACCTGCCAAGCTGTTGTACCGTCGGAGTCACCTAGTGCAG”: the binding signal was 8510 fluorescence intensity (a.u.).

In the case of “AGTTGGTTGGTAATTGTGTTCCTCTTTTCTTTTTTCTTTTCGGAGTCACCTAGTGCAG”, the binding signal was 9400 fluorescence intensity (a.u.).

With “TTCTAAACTTCCATACACAATTTTTCAGTCACATCGTTTCCGGAGTCACCTAGTGCAG”, the binding signal was 8580 fluorescence intensity (a.u.).

As to “TGACCTCCATTTTTTTTTCCTTTTCACTTCTCTTGTTCTTCGGAGTCACCTAGTGCAG”, the binding signal was 8560 fluorescence intensity (a.u.).

For the sequence “GACTCATTTATTATTTTCATGGTTTATCATTCGTAGAGTACGGAGTCACCTAGTGCAG”, the binding signal was 8930 fluorescence intensity (a.u.).

“TTGTAAGTATTTTACGCTTTATTTACGTTTGGAACTGTATCGGAGTCACCTAGTGCAG”: the binding signal was 9990 fluorescence intensity (a.u.).

With “CTTCCCTGCCTGTTTGTCATAGCCATGGCCGCTCTGCAGACGGAGTCACCTAGTGCAG”, the binding signal was 11400 fluorescence intensity (a.u.).

For the sequence “CCTCGCTCCGTCGCTCACAACCCGTCTCCTGCTCGATCCGCGGAGTCACCTAGTGCAG”, the binding signal was 9140 fluorescence intensity (a.u.).

Consider “CTGTGCTTCTCCTCCGCGCTCCACATCACATCGCATCACCCGGAGTCACCTAGTGCAG”, for which the binding signal was 10500 fluorescence intensity (a.u.).

On to “TCTTTCAGCCATGTTGATGCGCACTCAGATAGATCTATCTCGGAGTCACCTAGTGCAG”, for which the binding signal is 8090 fluorescence intensity (a.u.).

With “TCCGCCGCGAGCGGCGCTTCCTAGTTCCTACCTCCGTTTCCGGAGTCACCTAGTGCAG”, the binding signal is 11600 fluorescence intensity (a.u.).

Consider “CATTATTGCCCTTGACAGTTTTCTTATTTACCTGCCATACCGGAGTCACCTAGTGCAG”, for which the binding signal was 12000 fluorescence intensity (a.u.).

Take “CCTCCACTTGGCCCGCCATCTCGCCGTCCCTTCTCACGAGCGGAGTCACCTAGTGCAG”: the binding signal is 10300 fluorescence intensity (a.u.).

Take “TGTGTCTGTGTGTGTGTTTTTTTTCCCGATCAAAGATCGGCGGAGTCACCTAGTGCAG”: the binding signal was 9380 fluorescence intensity (a.u.).

With “TACCACAACAAACTGCTACCACTTCACCATTCATAATTCGCGGAGTCACCTAGTGCAG”, the binding signal is 11300 fluorescence intensity (a.u.).

With “GCAGCCATGATTTTCTGCGTCTAACTTTGACCGTCTGTCTCGGAGTCACCTAGTGCAG”, the binding signal is 10200 fluorescence intensity (a.u.).

Consider “TGGTCGAAAAGTCAACGGCGTCATACATTAAAATACGGAGCGGAGTCACCTAGTGCAG”, for which the binding signal was 12600 fluorescence intensity (a.u.).

As for “TTGTTTCCACGCAATTCTCAATAAAGCACCAATGCACCATCGGAGTCACCTAGTGCAG”, the binding signal is 8130 fluorescence intensity (a.u.).

The record behind these values is paper PMC7819943, “Rice protein-binding microarrays: a tool to detect cis-acting elements near promoter regions in rice”.
